Laboratory results reported in PubChem BioAssay AID445 (National Center for Advancing Translational Sciences (NCATS), 2006).
The list shows a part of the results. Further columns of the screen follow, without active or inactive calls. The list favours compounds with an active or inconclusive main result. Potencies come from curve fits of mixed quality, noted in brackets.

Experiment: IkB Signaling
Settings: ABC-DLBCL IkBa-CBG/CBR dual luciferase ratio (green luciferase fused to IkBa over red control in OCI-Ly3 lymphoma cells), 4 h; measured here: control luc red channel unless noted
Procedure, shortened: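 Curves were fitted separately to fusion (green), unfused (red) and ratio luminescence, then classed by r2, magnitude and activity. Cells: OCI-Ly3, 4 h compound plus doxycycline at 37C; 10 uM MG-132 defined full response.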
In the case of CCc1ccc(C(=O)COC(=O)C(Cc2c[nH]c3ccccc23)NC(=O)c2ccc(Br)cc2)cc1 (stereo not drawn), the AC50 is reported as 3.98 µM [falling, full curve]. In the case of CCOc1ccc(C2CC(=O)c3c([nH]c(C(=O)OCc4ccccc4)c3C)C2)cc1 (stereo not drawn), the AC50 is reported as 1 µM [rising, full curve]. In the case of COc1ccc(CCN2C(=O)c3oc4ccc(F)cc4c(=O)c3C2c2ccc(C(C)(C)C)cc2)cc1 (stereo not drawn), the AC50 is reported as 0.398 µM [falling, full curve, poor fit]. For CCCn1nnc(NC(=O)c2cc3ccccc3o2)n1, the AC50 was 10 µM [falling, partial curve]. In the case of Cc1ccc(C(=O)Nc2ccc(O)c(C(=O)O)c2)o1, the AC50 is reported as 20 µM [falling, partial curve]. In the case of COc1ccc(-c2nc3sc(CCNC(=O)c4cc(Cl)ccc4OC)c(C)n3n2)cc1, the AC50 is reported as 25.1 µM [falling, partial curve]. In the case of O=C(Cc1ccccc1)Nc1ccccc1N1CCN(c2ccccc2)CC1, the AC50 is reported as 15.8 µM [falling, partial curve]. In the case of CN(Cc1ccccc1)S(=O)(=O)c1ccc(F)c(C(=O)Nc2cccc(Cl)c2Cl)c1, the AC50 is reported as 31.6 µM [falling, partial curve, poor fit]. For Cc1ccc(C(C)(C)C)c(OCC(=O)NCCc2nc3ccccc3[nH]2)c1, the AC50 was 20 µM [falling, partial curve]. With O=C(NCc1cccs1)c1nc2c(nnn2Cc2ccccc2Cl)c(=O)[nH]1 the AC50 was 15.8 µM [falling, partial curve]. With CCOc1ccccc1-n1nnc(-c2nc(-c3ccccc3)no2)c1N the AC50 was 5.01 µM [falling, partial curve]. For Cc1c(/C=C(\C#N)C(=O)Nc2cccc(Cl)c2)c2ccccc2n1Cc1ccccc1Cl, the AC50 was 0.794 µM [falling, full curve]. In the case of Cc1c(Cl)cccc1NC(=O)CN1C(=O)COc2ccc(S(=O)(=O)Nc3ccccc3)cc21, the AC50 is reported as 10 µM [falling, full curve]. With COc1cccc(-n2c(SCC(=O)NC3CCCCC3)nc3n[nH]c(C)c3c2=N)c1 the AC50 was 15.8 µM [falling, partial curve]. With COc1ccc(NC(=O)c2ccc3c(c2)CCN3S(=O)(=O)c2ccc(C)cc2)cc1Cl the AC50 was 0.316 µM [rising, full curve]. In the case of CCOC(=O)N1CCC(Nc2cccc(SC)c2)CC1, the AC50 is reported as 25.1 µM [falling, partial curve]. In the case of CC(C)NS(=O)(=O)c1ccc2nc(NC(=O)c3cncc(Br)c3)sc2c1, the AC50 is reported as 39.8 µM [falling, single point]. For COc1cc(NC(=O)CSc2nc3nc(C)c(Cc4ccc(C)cc4)c(C)n3n2)cc(OC)c1, the AC50 was 39.8 µM [falling, partial curve, poor fit].
